Reference: publication PMC9852543
Results are given in words; binding and its absence hold for the method and conditions named. Binding seen in cells or lysates may run through a third protein. Some results given as binding are weak or reduced against the parent protein; the word gives no strength. Where a sequence is shown, tags or fusion partners need not be part of it.

By UniProt entry, the sequences of proteins in these tests, tags left out.
UniProt Q8N122: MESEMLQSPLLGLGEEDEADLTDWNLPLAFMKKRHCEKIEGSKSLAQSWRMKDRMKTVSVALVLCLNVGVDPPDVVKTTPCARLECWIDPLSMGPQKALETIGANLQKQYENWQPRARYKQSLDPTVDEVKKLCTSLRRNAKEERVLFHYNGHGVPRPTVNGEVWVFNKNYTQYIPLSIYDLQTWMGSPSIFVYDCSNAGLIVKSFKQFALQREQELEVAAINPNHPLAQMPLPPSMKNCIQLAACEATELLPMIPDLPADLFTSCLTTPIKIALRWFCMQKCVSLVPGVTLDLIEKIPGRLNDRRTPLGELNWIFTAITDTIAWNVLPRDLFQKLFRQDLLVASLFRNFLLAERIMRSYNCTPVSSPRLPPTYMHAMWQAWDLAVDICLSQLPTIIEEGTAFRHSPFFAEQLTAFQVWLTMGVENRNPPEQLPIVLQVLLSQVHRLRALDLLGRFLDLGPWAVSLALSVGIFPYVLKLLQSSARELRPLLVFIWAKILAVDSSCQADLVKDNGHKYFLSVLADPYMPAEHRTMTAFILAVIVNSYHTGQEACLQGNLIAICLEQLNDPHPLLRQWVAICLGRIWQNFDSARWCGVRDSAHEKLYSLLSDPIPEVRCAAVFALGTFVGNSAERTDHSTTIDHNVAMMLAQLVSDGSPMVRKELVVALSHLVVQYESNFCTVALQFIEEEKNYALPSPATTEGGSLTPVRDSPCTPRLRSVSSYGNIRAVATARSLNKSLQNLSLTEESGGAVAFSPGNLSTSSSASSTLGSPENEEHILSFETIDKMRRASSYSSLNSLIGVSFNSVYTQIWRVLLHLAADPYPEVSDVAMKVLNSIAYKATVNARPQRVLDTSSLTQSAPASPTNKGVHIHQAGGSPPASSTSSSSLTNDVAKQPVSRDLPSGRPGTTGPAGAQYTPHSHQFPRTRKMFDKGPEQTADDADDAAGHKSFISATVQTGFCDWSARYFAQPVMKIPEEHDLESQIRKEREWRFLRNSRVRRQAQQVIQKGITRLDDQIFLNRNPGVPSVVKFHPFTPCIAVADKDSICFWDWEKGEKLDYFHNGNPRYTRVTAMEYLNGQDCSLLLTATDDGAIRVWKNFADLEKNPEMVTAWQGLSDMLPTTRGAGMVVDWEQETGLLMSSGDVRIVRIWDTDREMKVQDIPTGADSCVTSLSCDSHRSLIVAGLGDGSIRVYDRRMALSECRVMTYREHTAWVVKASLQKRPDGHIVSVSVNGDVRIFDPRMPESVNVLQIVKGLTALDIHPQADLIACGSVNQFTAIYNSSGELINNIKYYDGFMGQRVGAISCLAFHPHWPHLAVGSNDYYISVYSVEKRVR

Tests used:
FLAG-HA-Unkempt (mouse) [1] = target: T1, FLAG-HA-Unkempt (mouse) (UniProt Q8BL48); assay: co-IP; as a1, but with the other detergent (Triton X-100, which disrupts the interaction of Raptor with mTOR)
T1 sequence: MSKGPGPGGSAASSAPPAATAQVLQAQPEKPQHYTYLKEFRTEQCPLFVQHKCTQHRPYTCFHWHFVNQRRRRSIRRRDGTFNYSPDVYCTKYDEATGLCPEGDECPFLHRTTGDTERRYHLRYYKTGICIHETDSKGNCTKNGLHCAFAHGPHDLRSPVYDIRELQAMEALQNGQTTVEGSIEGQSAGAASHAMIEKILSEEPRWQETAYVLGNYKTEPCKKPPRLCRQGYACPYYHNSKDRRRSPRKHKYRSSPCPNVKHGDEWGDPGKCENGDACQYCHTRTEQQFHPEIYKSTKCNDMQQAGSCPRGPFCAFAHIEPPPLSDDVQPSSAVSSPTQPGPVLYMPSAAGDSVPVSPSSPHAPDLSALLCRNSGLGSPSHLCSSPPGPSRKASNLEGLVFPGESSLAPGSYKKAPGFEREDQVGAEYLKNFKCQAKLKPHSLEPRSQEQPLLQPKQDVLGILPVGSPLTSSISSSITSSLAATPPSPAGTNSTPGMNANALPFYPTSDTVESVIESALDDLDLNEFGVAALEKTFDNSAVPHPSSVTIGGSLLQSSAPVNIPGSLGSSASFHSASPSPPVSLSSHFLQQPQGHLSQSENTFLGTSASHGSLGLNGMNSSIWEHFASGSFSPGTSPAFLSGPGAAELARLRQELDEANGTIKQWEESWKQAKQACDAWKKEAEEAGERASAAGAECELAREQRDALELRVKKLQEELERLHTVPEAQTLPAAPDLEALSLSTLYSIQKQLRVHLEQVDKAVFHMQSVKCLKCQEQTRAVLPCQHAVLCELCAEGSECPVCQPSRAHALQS

FLAG-HA-Unkempt (mouse) [2] = target: T1, FLAG-HA-Unkempt (mouse); assay: co-IP; FLAG-HA-Unkempt immunoprecipitated from HeLa S3 cells induced with 1 ug/ml doxycycline for 24 h; cells serum-starved, then insulin or rapamycin; non-induced cells (DOX-) as negative control; detergent under which mTOR co-precipitates (CHAPS, which preserves Raptor-mTOR)

binding (FLAG-HA-Unkempt (mouse) [1]): binds
binding (FLAG-HA-Unkempt (mouse) [2]): binds
Substance: regulatory-associated protein of mTOR (Raptor) (from UniProt Q8N122 1-1335)
